## Primary screen of a compound library

Protein sequences, listed by entry. Tags and fused reporters are not part of them.
UniProt E9BF75, entry or part of it: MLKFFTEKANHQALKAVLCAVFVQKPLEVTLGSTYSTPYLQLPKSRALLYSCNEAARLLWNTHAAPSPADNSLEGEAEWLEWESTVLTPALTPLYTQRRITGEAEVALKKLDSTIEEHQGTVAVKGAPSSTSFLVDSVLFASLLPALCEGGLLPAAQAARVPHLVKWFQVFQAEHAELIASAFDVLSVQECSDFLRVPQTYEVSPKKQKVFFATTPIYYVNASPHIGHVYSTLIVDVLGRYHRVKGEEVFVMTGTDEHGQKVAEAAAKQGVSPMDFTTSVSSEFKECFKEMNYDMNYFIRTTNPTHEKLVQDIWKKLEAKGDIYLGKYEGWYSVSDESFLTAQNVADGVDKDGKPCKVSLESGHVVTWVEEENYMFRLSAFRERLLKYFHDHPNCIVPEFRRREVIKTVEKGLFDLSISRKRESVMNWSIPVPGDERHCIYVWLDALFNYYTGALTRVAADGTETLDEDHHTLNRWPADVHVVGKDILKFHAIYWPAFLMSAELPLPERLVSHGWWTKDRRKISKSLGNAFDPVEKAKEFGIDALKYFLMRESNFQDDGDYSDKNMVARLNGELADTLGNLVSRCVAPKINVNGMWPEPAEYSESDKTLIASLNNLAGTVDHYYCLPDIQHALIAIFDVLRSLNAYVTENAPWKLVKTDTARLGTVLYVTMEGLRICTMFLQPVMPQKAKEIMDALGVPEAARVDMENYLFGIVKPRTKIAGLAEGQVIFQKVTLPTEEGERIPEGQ

Measurements from “University of Dundee, Small-Polar-MMV Screening Library” (2021), ChEMBL document CHEMBL3988442.

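Methionyl-tRNA synthetase (putative), Leishmania donovani (UniProt E9BF75). Primary screen of methionyl-tRNA synthetase; the read-out is not stated. The test concentration is not given. Values are per cent inhibition. About 68,000 compounds were tested under these conditions; 0.035% (about 24) showed 50% or more at least once.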

Results are percentages, as filed. The record does not define 0% and 100%; most values in the screen are far below 50% and negative numbers occur (in some assays of this library far below -100). Compounds were drawn at random from those tested, without regard to their results.

| SMILES | inhibition |
|---|---|
| `CC(=O)N[C@H]1CN(CC(=O)NCc2ccccc2C)C[C@@H]1C(C)C` | 9.415% |
| `CCN(CC)C(=O)c1nc2c(s1)CCN(Cc1cccc(OC)c1)CC2` | 8.711% |
| `O=C(Cc1ccc(Cl)cc1)N[C@@H]1CCC[C@@H](O)[C@@H]1O` | 4.651% |
| `CN1CCC(Oc2ccc(-n3ccnc3-c3ccncc3)cc2)CC1` | 18.02% |
| `Cn1cnc(S(=O)(=O)NCCCN2CCCCCC2=O)c1Cl` | 21.11% |
| `COc1ccc(Cl)cc1C(=O)NCC1CCN(C(=O)c2ccoc2)CC1` | 12.24% |
| `CS(=O)(=O)c1cncnc1C1CCCNC1` (stereo unspecified) | 8.01% |
| `Cn1cc(CN2CCCCC2c2ccc(-c3cnn(C)c3)nc2)cn1` (stereo unspecified) | 9.841% |
| `Cc1nocc1C(=O)N1CCCC2(CCN(c3ccsc3)C2=O)C1` (stereo unspecified) | 8.219% |
| `CN(C)c1ccccc1CN1CCCC(N2CCCC2=O)C1` (stereo unspecified) | 9.946% |
| `COC(=O)c1sccc1S(=O)(=O)N1CCc2c(ncnc2N(C)C)C1` | 9.804% |
| `Cc1cnn(CC2CCCN2C(=O)c2sccc2-n2cnnn2)c1` (stereo unspecified) | 23.33% |
| `CN(CC(O)C1CC1)C(=O)c1ccc(-c2nc(C3CC3)n[nH]2)cc1` (stereo unspecified) | 18.56% |
| `Cc1nn2cccnc2c1C(=O)N1CCCC(n2ccnc2)C1` (stereo unspecified) | 9.79% |
| `O=C(O)c1ccnc(-c2ccnc(NCCc3ccc(F)cc3)n2)c1` | 11.73% |
| `CN(C)c1cc(N2CCN(c3ccccn3)CC2)ncn1` | 8.056% |
| `CCOc1ncccc1Cn1cc(-c2cncnc2)nn1` | 16.55% |
| `CCC1=N[C@@]2(CC[C@@H]3CN(C(=O)NCc4ccccc4)C[C@@H]32)C(=O)N1C` | 0.4292% |
| `CCc1cc(CN(C)C(=O)C2CC(=O)N(c3cccc(O)c3)C2)on1` (stereo unspecified) | 17.39% |
| `CCN(CC)c1ccc(CNC(=O)N2CCC(C#N)CC2)cc1` | 21.75% |
| `Cc1oc(C(=O)O)cc1S(=O)(=O)Nc1cc(Cl)ccc1F` | 14.98% |
| `COCC(=O)N1CC[C@@H](N2CCOCC2)[C@@H]1Cc1cccnc1` | 3.922% |
| `CC1(c2nccs2)CCN(C(=O)CCN2CCOCC2)CC1` | 10.47% |
| `CCC(CN1CCCC1)NC(=O)C1(c2ccc(F)cc2)CC1` (stereo unspecified) | -145.9% |
| `CCCN1CCC(CC(=O)N2CC(C)(C)[C@@](C)(O)C2)CC1` | 10.43% |
| `CC1CCN(S(=O)(=O)NCc2ccccc2Cn2cncn2)CC1` | 11.11% |
| `COc1cccc(Nc2nc(C3CCNCC3)c3ccccn23)c1` | 16.82% |
| `COc1ccc(C)cc1CN(C)Cc1nc2c(cnn2C)c(=O)[nH]1` | 12.6% |
| `O=C1NC2(CCN(Cc3ccc(F)cc3)CC2)CC1c1ccncc1` (stereo unspecified) | 3.922% |
| `Cc1ccc(C(=O)N2Cc3c(CN4CCCCC4)nn(C)c3C2)o1` | 5.625% |
| `CCN(C(=O)c1cc(C)nc2ccccc12)C1CC(=O)NC1=O` (stereo unspecified) | 18.09% |
| `CCc1cc(NCCN2CCNC2=O)n2nc(C)c(C)c2n1` | 11.2% |
| `COCCCN1C(=O)CC[C@H]2CN(Cc3cc4ccccc4o3)CC[C@H]21` | 7.986% |
| `COCCN(C)CCN1CC2(CCN(C3CCNCC3)CC2)OC1=O` | 11.37% |
| `O=C(NCC1CCOC1)c1csc(-c2ccccc2)n1` (stereo unspecified) | 14.53% |
| `c1cnc(N2CCO[C@H]3[C@H](OCCN4CCOCC4)CC[C@@H]32)nc1` | 13.49% |
| `Cc1cnn(CC2CN(c3ncnc4ccccc34)CCO2)c1` (stereo unspecified) | 0.4695% |
| `Nc1c(N2CCCCC2)ncnc1N1CCOCC1` | 6.389% |
| `CCc1nnc(NCc2cccc(OC)c2OC)o1` | -2.32% |
| `O=C(c1cccnc1)N1CCCC2(CCN(c3ccsc3)C2=O)C1` (stereo unspecified) | -0.9804% |
| `Cc1cc(NCC(C)C)ccc1C(=O)N(C)C` | -0.7732% |
| `O=C(c1ccsc1)N1CCC(c2nnc(C3CC3)o2)CC1` | 9.492% |
| `Cc1cccc(-n2cnnc2CCCN2CCOCC2)c1` | 8.75% |
| `COc1cc(CNc2cnn(CC(F)F)c2)ccc1O` | 5.135% |
| `CC(C)c1nccn1C1CCCN(C(=O)CCCc2ccccn2)C1` (stereo unspecified) | 16% |
| `O=C1Nc2ccccc2C12CCN(Cc1ccccn1)CC2` | 20.73% |
| `C=C(C)COc1ccccc1C(=O)NCc1nc(C)cc(=O)[nH]1` | 18.61% |
| `CN(C(=O)CCNC(=O)NC1CCCCC1)c1ccccc1` | 9.155% |
| `Cc1nc(C2CCNCC2)cc(N2CCOc3ccccc3C2)n1` | 17.18% |
| `O=C(NCc1cccnc1)[C@H]1CN2CCC1C[C@@H]2Cn1cc(CO)nn1` (stereo partly specified) | 6.044% |

The first 6 entries again:

| SMILES | inhibition |
|---|---|
| `CC(=O)N[C@H]1CN(CC(=O)NCc2ccccc2C)C[C@@H]1C(C)C` | 9.415% |
| `CCN(CC)C(=O)c1nc2c(s1)CCN(Cc1cccc(OC)c1)CC2` | 8.711% |
| `O=C(Cc1ccc(Cl)cc1)N[C@@H]1CCC[C@@H](O)[C@@H]1O` | 4.651% |
| `CN1CCC(Oc2ccc(-n3ccnc3-c3ccncc3)cc2)CC1` | 18.02% |
| `Cn1cnc(S(=O)(=O)NCCCN2CCCCCC2=O)c1Cl` | 21.11% |
| `COc1ccc(Cl)cc1C(=O)NCC1CCN(C(=O)c2ccoc2)CC1` | 12.24% |